Results deposited as PubChem BioAssay AID652272 (Drosophila RNAi Screening Center, 2013).

Purpose: 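Genes whose knock-down decreases or increases Hedgehog reporter output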 (primary screen)
System: Drosophila clone 8 (Cl8) cells
Reagents: long dsRNA against Drosophila genes
Measurement: 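Firefly light from a Hedgehog-responsive ptc promoter reporter and Renilla reference light, both read on a plate reader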
Scale: firefly Hh reporter signal: higher = more ptc reporter light; Renilla reference signal: higher = more Renilla control light
Hit rule: 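Called a hit if the two-replicate mean z-score lies below -2 or above +3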
Calls: active = hit: reporter lowered or raised; inactive = not a hit
The deposit covers about 21,000 reagents; below is a random part of those with a known target gene and a result. Of all reagents, 503 (2.4%) were called active. 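Raw plate light values, not normalised; calls rest on replicate z-scores that were not deposited; hits include reporter decreases as well as increases.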 Entries without a mark were called inactive. No sequences are given here. Not stated in the record: the amount of reagent, the time to read-out.

CG12229 [SID104189660] showed firefly Hh reporter signal, replicate 1 = 82544; Renilla reference signal, replicate 1 = 2123; Renilla reference signal, replicate 2 = 2528.
Depletion of Cth (Cystathionine gamma-lyase) [SID104187214] resulted in: firefly Hh reporter signal, replicate 1 = 2.05e5; firefly Hh reporter signal, replicate 2 = 97476; Renilla reference signal, replicate 1 = 7298; Renilla reference signal, replicate 2 = 4022.
For Phk-3 (Pherokine 3) [SID104184339], the entry reads firefly Hh reporter signal, replicate 1 = 85195; firefly Hh reporter signal, replicate 2 = 78450; Renilla reference signal, replicate 1 = 1898; Renilla reference signal, replicate 2 = 6379.
With knock-down of nolo (no long nerve cord) [SID104183497], the screen gave firefly Hh reporter signal, replicate 1 = 80794; firefly Hh reporter signal, replicate 2 = 55804; Renilla reference signal, replicate 1 = 3165; Renilla reference signal, replicate 2 = 2213.
Against nolo (no long nerve cord) [SID104183511], the values are firefly Hh reporter signal, replicate 1 = 87216; firefly Hh reporter signal, replicate 2 = 47164; Renilla reference signal, replicate 1 = 2353; Renilla reference signal, replicate 2 = 4820.
With knock-down of nolo (no long nerve cord) [SID104183512] the results were firefly Hh reporter signal, replicate 1 = 91424; firefly Hh reporter signal, replicate 2 = 1.09e5; Renilla reference signal, replicate 1 = 2496; Renilla reference signal, replicate 2 = 6834.
For CG12301 [SID104189667], the entry reads firefly Hh reporter signal, replicate 1 = 90528; firefly Hh reporter signal, replicate 2 = 55795; Renilla reference signal, replicate 1 = 3845; Renilla reference signal, replicate 2 = 2743.
After knock-down of CG13539 [SID104183973] the results were firefly Hh reporter signal, replicate 1 = 68454; firefly Hh reporter signal, replicate 2 = 58460; Renilla reference signal, replicate 1 = 1513; Renilla reference signal, replicate 2 = 5200.
Silencing of CG1024 [SID104192288] gave: firefly Hh reporter signal, replicate 1 = 48025; firefly Hh reporter signal, replicate 2 = 1.05e5; Renilla reference signal, replicate 1 = 1472; Renilla reference signal, replicate 2 = 3489.
For Smg6 [SID104195821], the values are firefly Hh reporter signal, replicate 1 = 1.69e5; firefly Hh reporter signal, replicate 2 = 1.70e5; Renilla reference signal, replicate 1 = 5284; Renilla reference signal, replicate 2 = 5328.
With knock-down of mthl7 (methuselah-like 7) [SID104190644], the record shows firefly Hh reporter signal, replicate 1 = 31586; firefly Hh reporter signal, replicate 2 = 59952; Renilla reference signal, replicate 1 = 1659; Renilla reference signal, replicate 2 = 3008.
Silencing of CG12909 [SID104186016] gave: firefly Hh reporter signal, replicate 1 = 61452; firefly Hh reporter signal, replicate 2 = 38517; Renilla reference signal, replicate 1 = 1777; Renilla reference signal, replicate 2 = 3219.
Against Gclc (Glutamate-cysteine ligase catalytic subunit) [SID104198458], the entry reads firefly Hh reporter signal, replicate 1 = 1.02e5; firefly Hh reporter signal, replicate 2 = 2.89e5; Renilla reference signal, replicate 1 = 4154; Renilla reference signal, replicate 2 = 11024.
Against Or59b (Odorant receptor 59b) [SID104184424], the values are firefly Hh reporter signal, replicate 1 = 88258; firefly Hh reporter signal, replicate 2 = 46832; Renilla reference signal, replicate 1 = 2424; Renilla reference signal, replicate 2 = 4144.
For Sox100B [SID104194882], the entry reads firefly Hh reporter signal, replicate 1 = 75702 (active); firefly Hh reporter signal, replicate 2 = 80758; Renilla reference signal, replicate 1 = 4071; Renilla reference signal, replicate 2 = 4370.
Sox100B [SID104196658] gave firefly Hh reporter signal, replicate 1 = 1.00e5; firefly Hh reporter signal, replicate 2 = 1.48e5; Renilla reference signal, replicate 1 = 3924; Renilla reference signal, replicate 2 = 4427.
With knock-down of lncRNA:CR31781 (long non-coding RNA:CR31781) [SID104182223] the results were firefly Hh reporter signal, replicate 1 = 1.35e5; firefly Hh reporter signal, replicate 2 = 71926; Renilla reference signal, replicate 1 = 4737; Renilla reference signal, replicate 2 = 3168.
Against lncRNA:CR31781 (long non-coding RNA:CR31781) [SID104182224], the values are firefly Hh reporter signal, replicate 1 = 86936; firefly Hh reporter signal, replicate 2 = 50820; Renilla reference signal, replicate 1 = 2362; Renilla reference signal, replicate 2 = 4324.
Or67c (Odorant receptor 67c) [SID104191034] showed firefly Hh reporter signal, replicate 1 = 77787; firefly Hh reporter signal, replicate 2 = 60604; firefly Hh reporter signal, replicate 3 = 51194; Renilla reference signal, replicate 1 = 4807; Renilla reference signal, replicate 2 = 3907.
After knock-down of OXA1L (OXA1L mitochondrial inner membrane protein) [SID104189464], the record shows firefly Hh reporter signal, replicate 1 = 76264; firefly Hh reporter signal, replicate 2 = 56453; Renilla reference signal, replicate 1 = 3824; Renilla reference signal, replicate 2 = 2352.
Depletion of CG12620 [SID104181969] came out at: firefly Hh reporter signal, replicate 1 = 87883; firefly Hh reporter signal, replicate 2 = 59377; Renilla reference signal, replicate 1 = 2288; Renilla reference signal, replicate 2 = 5780.

Copied from the entries so far, 3 entries:
CG12909 [SID104186016] | firefly Hh reporter signal, replicate 1 = 61452; firefly Hh reporter signal, replicate 2 = 38517; Renilla reference signal, replicate 1 = 1777; Renilla reference signal, replicate 2 = 3219
Gclc (Glutamate-cysteine ligase catalytic subunit) [SID104198458] | firefly Hh reporter signal, replicate 1 = 1.02e5; firefly Hh reporter signal, replicate 2 = 2.89e5; Renilla reference signal, replicate 1 = 4154; Renilla reference signal, replicate 2 = 11024
Or59b (Odorant receptor 59b) [SID104184424] | firefly Hh reporter signal, replicate 1 = 88258; firefly Hh reporter signal, replicate 2 = 46832; Renilla reference signal, replicate 1 = 2424; Renilla reference signal, replicate 2 = 4144
